From article doi:10.1101/2025.06.16.659917
These are yes or no findings as the source states them, for the method shown. For part of these data: In cells and extracts the contact can be indirect. Some entries that bind do so weakly or less than the wild type. For part of these data: Sequences can lack the tags named with a protein.

The chains behind the UniProt entries cited, without tags or fusion partners.
UniProt P24863: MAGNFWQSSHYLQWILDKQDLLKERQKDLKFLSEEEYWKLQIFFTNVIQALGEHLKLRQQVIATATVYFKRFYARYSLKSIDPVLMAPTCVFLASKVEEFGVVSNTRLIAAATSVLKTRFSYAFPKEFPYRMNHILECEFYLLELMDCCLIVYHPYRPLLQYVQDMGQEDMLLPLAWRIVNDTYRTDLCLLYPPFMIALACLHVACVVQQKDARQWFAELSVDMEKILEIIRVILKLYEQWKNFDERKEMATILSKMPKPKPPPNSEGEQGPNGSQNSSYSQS
UniProt P49336: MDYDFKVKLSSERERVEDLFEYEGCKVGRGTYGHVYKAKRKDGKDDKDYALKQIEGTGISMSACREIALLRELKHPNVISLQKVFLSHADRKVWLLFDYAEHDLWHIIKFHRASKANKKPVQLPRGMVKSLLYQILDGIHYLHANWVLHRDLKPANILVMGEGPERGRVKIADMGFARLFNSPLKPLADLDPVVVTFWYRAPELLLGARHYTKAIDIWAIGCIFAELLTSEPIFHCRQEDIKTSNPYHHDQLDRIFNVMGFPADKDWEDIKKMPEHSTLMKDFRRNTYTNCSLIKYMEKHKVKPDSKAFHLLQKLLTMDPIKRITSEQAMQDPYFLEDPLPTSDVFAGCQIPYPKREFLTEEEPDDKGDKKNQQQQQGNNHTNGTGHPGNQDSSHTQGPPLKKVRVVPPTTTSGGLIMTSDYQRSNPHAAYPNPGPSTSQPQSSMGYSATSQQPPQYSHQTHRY

B1: MTBP(C) (MTBP residues 516-904, C-terminal Strep-tag) (domain or fragment, UniProt Q96DY7 516-904)
chain: AVIPKMILRKMDKIKTFNILNDFSPVEPNSSSLMETNPLEWPERHVLQNLETFEKTKQKMRTGSLPHSSEQLLGHKEGPRDSITLLDAKELLKYFTSDGLPIGDLQPLPIQKGEKTFVLTPELSPGKLQVLPFEKASVCHYHGIEYCLDDRKALERDGGFSELQSRLIRYETQTTCTRESFPVPTVLSPLPSPVVSSDPGSVPDGEVLQNELRTEVSRLKRRSKDLNCLYPRKRLVKSESSESLLSQTTGNSNHYHHHVTSRKPQTERSLPVTCPLVPIPSCETPKLATKTSSGQKSMHESKTSRQIKESRSQKHTRILKEVVTETLKKHSITETHECFTACSQRLFEISKFYLKDLKTSRGLFEEMKKTANNNAVQVIDWVLEKTSKK
B2: MTBP (endogenous, full-length) (protein, UniProt Q96DY7 1-904)
chain: MDRYLLLVIWGEGKFPSAASREAEHGPEVSSGEGTENQPDFTAANVYHLLKRSISASINPEDSTFPACSVGGIPGSKKWFFAVQAIYGFYQFCSSDWQEIHFDTEKDKIEDVLQTNIEECLGAVECFEEEDSNSRESLSLADLYEEAAENLHQLSDKLPAPGRAMVDIILLLSDKDPPKLKDYLPTVGALKHLREWYSAKITIAGNHCEINCQKIAEYLSANVVSLEDLRNVIDSKELWRGKIQIWERKFGFEISFPEFCLKGVTLKNFSTSNLNTDFLAKKIIPSKDKNILPKVFHYYGPALEFVQMIKLSDLPSCYMSDIEFELGLTNSTKQNSVLLLEQISSLCSKVGALFVLPCTISNILIPPPNQLSSRKWKEYIAKKPKTISVPDVEVKGECSSYYLLLQGNGNRRCKATLIHSANQINGSFALNLIHGKMKTKTEEAKLSFPFDLLSLPHFSGEQIVQREKQLANVQVLALEECLKRRKLAKQPETVSVAELKSLLVLTRKHFLDYFDAVIPKMILRKMDKIKTFNILNDFSPVEPNSSSLMETNPLEWPERHVLQNLETFEKTKQKMRTGSLPHSSEQLLGHKEGPRDSITLLDAKELLKYFTSDGLPIGDLQPLPIQKGEKTFVLTPELSPGKLQVLPFEKASVCHYHGIEYCLDDRKALERDGGFSELQSRLIRYETQTTCTRESFPVPTVLSPLPSPVVSSDPGSVPDGEVLQNELRTEVSRLKRRSKDLNCLYPRKRLVKSESSESLLSQTTGNSNHYHHHVTSRKPQTERSLPVTCPLVPIPSCETPKLATKTSSGQKSMHESKTSRQIKESRSQKHTRILKEVVTETLKKHSITETHECFTACSQRLFEISKFYLKDLKTSRGLFEEMKKTANNNAVQVIDWVLEKTSKK
B3: Med12(N100) (recombinant Med12 residues 1-100) (domain or fragment, UniProt Q93074 1-100)
chain: MAAFGILSYEHRPLKRPRLGPPDVYPQDPKQKEDELTALNVKQGFNNQPAVSGDEHGSAKNVSFNPAKISSNFSSIIAEKLRCNTLPDTGRRKPQVNQKD

Assays:
[1] = molecular target: CycC (recombinant, untagged) (human) (UniProt P24863); assay: cross-linking
[2] = molecular target: Cdk8 (endogenous, Hela) (human (endogenous in Hela)) (UniProt P49336); assay: co-IP

Binder | binding [1] | binding [2]
B1 | binds | –
B2 | – | binds
B3 | binds | –
